Some of the results follow.
Tests used:
Assay in all cases: log2 fold change, soluble protein after heating vs DMSO (PISA); higher = thermal stabilisation; K562 cells, 10 uM, 30 min; active = over 0.2 and 3.5 SD of the protein, either way, in both replicates (recomputed)
bafetinib = compound: Cc1ccc(NC(=O)c2ccc(CN3CC[C@H](N(C)C)C3)c(C(F)(F)F)c2)cc1Nc1nccc(-c2cncnc2)n1 [bafetinib]
How it was run: (§1)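 K562 cells at 2×10^6 cells/mL were treated with 10 μM compound for 30 min. Aliquots were heated for 3 min across 48°C-58°C, pooled, and extracted in PBS with 0.5% NP-40 at 4°C; soluble protein was the supernatant after 21,000xg for 90 min. Soluble protein was quantified by TMTpro 16plex LC-MS/MS with channel sums equalised, and reported as log2 fold change in thermal stability against DMSO controls, with values from duplicates.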

Protein sequences, listed by entry. Tags and fused reporters are not part of them. Lines headed by an entry give the natural chain unless they say otherwise; changes in a name come on top.
UniProt O60732: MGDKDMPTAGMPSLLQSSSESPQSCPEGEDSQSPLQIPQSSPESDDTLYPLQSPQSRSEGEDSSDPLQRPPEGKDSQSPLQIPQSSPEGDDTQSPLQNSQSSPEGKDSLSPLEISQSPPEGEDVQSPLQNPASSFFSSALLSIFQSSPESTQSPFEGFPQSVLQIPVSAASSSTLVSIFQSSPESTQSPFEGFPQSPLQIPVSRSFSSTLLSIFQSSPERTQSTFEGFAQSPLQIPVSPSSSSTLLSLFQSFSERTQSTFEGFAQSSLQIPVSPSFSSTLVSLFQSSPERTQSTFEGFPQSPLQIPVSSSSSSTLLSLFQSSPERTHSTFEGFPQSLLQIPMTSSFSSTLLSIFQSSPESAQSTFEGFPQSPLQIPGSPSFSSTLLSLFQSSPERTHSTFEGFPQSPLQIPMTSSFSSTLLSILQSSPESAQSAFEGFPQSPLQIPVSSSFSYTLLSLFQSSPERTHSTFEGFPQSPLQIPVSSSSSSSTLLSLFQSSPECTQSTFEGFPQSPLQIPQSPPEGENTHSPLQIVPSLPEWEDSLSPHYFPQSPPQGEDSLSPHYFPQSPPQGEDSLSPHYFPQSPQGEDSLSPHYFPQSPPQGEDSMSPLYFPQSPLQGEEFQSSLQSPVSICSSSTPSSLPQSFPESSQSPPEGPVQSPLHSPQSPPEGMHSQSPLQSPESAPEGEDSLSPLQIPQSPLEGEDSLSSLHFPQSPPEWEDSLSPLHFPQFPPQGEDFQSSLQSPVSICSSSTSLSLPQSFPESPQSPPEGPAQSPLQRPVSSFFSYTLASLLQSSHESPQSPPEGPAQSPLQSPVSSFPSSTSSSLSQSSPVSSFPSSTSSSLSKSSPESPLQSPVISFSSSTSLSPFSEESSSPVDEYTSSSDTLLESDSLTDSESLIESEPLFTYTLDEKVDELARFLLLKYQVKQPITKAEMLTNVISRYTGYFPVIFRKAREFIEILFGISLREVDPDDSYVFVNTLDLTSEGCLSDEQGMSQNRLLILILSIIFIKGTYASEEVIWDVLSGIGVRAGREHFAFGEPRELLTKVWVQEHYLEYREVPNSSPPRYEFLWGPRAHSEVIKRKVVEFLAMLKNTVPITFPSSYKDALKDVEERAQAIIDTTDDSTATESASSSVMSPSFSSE
UniProt P45985: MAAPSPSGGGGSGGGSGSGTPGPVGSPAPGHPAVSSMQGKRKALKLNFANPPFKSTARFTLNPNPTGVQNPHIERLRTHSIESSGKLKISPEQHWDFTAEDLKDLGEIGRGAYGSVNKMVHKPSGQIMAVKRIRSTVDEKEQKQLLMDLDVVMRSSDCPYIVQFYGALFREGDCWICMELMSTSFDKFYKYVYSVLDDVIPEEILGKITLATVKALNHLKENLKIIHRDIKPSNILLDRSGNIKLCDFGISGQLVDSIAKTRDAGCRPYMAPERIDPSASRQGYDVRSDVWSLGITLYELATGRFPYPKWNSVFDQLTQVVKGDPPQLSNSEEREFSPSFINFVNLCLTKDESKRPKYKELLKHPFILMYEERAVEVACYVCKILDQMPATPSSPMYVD
UniProt P49006: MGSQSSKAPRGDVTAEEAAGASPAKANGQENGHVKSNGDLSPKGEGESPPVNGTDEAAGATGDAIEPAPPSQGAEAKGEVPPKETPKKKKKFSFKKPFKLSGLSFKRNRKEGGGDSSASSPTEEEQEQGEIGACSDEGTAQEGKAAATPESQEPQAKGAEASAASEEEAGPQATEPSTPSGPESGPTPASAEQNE
UniProt P43361: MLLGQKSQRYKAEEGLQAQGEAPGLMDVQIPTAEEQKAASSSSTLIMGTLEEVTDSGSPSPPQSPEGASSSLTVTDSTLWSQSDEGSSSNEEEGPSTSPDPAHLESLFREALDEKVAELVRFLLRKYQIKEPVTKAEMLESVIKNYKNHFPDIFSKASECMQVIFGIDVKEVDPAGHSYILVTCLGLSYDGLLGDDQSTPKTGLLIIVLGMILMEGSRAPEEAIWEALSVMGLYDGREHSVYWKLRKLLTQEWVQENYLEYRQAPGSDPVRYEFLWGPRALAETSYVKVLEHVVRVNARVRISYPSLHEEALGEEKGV
UniProt Q5U5X0: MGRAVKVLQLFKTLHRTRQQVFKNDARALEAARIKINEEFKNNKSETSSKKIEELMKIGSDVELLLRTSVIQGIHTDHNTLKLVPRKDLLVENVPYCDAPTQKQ
UniProt P27448: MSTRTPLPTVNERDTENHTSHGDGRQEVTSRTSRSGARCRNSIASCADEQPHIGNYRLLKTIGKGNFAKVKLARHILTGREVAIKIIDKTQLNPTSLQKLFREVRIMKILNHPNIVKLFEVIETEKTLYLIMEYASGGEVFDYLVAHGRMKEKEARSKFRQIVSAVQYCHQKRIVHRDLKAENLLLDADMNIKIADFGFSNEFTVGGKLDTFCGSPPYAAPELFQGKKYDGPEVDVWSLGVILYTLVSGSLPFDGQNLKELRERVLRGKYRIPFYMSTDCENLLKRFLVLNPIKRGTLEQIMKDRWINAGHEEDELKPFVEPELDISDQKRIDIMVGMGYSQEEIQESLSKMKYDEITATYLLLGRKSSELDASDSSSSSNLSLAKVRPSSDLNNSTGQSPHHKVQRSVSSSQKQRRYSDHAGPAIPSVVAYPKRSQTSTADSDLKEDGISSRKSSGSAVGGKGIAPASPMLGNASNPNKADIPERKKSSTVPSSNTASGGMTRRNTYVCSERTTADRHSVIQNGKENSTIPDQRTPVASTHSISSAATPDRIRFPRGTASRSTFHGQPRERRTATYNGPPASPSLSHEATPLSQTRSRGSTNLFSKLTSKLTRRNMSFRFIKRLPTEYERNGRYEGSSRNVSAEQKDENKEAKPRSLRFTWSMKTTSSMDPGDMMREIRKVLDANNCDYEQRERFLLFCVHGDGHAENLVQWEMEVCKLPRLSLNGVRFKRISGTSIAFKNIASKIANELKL
UniProt Q3KQU3: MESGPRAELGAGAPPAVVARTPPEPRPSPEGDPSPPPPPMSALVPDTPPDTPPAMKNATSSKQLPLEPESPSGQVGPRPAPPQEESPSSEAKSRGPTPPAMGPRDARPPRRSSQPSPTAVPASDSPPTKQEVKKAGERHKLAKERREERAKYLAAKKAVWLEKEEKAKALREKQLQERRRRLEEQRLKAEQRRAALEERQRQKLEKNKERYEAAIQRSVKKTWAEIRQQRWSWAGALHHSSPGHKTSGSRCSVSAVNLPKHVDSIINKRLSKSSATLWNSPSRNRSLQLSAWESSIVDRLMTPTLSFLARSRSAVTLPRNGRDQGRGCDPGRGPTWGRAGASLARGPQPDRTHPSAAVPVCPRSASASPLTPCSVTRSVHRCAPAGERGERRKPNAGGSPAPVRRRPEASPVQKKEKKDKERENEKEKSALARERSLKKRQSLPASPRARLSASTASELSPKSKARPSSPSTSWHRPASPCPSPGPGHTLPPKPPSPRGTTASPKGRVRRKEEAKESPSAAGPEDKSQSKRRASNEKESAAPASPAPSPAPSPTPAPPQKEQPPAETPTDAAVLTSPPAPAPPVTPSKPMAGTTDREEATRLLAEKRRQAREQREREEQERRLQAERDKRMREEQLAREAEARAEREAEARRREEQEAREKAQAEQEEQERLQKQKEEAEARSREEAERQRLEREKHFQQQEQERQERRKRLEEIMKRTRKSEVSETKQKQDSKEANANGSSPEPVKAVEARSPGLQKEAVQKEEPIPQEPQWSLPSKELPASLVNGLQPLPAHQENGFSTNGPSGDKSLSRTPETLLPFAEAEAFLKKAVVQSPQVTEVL
UniProt O15116: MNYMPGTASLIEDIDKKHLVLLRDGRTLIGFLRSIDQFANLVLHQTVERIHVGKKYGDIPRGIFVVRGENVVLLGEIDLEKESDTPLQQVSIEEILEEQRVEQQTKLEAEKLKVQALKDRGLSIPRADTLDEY
UniProt Q14766: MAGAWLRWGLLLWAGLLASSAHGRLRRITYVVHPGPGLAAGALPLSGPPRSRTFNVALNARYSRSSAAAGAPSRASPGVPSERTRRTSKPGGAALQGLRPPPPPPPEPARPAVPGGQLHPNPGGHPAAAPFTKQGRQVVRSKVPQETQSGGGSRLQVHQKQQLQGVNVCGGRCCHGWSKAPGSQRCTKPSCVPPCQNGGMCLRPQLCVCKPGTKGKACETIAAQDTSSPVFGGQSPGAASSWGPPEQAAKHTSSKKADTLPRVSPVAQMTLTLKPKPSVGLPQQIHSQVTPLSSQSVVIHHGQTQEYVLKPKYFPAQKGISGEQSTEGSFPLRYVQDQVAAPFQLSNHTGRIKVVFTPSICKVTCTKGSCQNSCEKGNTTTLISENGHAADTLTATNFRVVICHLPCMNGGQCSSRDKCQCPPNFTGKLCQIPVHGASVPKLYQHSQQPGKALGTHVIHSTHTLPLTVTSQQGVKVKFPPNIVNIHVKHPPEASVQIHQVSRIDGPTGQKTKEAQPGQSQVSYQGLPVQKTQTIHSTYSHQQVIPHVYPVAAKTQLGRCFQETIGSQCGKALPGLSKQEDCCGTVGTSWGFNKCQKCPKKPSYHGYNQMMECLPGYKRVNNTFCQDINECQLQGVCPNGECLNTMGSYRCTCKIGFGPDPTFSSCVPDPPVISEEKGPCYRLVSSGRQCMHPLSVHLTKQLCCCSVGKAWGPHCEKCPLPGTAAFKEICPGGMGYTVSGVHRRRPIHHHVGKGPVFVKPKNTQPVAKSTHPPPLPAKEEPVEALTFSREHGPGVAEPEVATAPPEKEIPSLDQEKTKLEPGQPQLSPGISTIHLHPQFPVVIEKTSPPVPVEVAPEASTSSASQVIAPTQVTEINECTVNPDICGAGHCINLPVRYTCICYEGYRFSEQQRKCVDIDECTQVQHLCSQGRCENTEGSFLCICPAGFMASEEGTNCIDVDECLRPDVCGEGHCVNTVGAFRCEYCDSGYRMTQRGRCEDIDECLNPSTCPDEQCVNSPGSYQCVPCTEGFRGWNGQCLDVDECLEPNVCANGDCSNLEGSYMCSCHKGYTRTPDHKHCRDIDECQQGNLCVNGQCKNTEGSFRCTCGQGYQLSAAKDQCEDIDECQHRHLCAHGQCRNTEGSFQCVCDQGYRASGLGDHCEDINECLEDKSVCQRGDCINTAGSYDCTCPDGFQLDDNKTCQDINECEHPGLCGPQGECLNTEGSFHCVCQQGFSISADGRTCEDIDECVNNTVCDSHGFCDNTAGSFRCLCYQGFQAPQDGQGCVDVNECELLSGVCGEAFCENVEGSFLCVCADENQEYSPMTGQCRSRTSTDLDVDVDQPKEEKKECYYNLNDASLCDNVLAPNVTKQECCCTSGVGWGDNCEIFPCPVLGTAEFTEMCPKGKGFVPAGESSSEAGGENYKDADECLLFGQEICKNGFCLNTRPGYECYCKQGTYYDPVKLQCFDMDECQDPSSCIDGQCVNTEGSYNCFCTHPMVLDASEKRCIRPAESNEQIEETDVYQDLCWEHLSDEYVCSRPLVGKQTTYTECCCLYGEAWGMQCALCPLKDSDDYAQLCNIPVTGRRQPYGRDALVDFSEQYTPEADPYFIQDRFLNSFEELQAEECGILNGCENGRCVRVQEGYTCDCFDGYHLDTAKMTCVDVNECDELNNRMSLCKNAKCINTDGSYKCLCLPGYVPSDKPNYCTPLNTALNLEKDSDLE
UniProt Q9H0U3: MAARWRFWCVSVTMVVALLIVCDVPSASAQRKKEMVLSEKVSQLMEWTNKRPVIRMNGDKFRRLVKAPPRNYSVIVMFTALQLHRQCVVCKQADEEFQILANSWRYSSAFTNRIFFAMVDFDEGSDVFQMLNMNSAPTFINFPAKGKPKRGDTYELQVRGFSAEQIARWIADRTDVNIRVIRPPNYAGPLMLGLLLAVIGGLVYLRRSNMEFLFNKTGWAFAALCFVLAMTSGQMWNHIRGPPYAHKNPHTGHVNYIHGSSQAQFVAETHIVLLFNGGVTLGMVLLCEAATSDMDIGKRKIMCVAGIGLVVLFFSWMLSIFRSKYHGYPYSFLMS
UniProt Q96GA3: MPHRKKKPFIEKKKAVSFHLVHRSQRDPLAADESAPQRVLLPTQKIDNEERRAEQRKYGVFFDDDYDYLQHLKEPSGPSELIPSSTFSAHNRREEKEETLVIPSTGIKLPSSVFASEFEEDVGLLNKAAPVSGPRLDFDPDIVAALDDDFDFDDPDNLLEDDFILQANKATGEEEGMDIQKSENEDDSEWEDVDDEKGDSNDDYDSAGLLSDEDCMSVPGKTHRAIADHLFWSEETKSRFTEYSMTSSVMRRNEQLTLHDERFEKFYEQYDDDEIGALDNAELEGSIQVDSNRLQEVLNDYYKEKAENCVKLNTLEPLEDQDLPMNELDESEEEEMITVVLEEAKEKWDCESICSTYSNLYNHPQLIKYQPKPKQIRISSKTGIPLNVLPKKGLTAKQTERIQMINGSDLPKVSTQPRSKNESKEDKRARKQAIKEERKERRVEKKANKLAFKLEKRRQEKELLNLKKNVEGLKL

[1] = compound: Cc1cccc(CC(=O)N2CCc3c2ccc(-c2cn(C)c4ncnc(N)c24)c3F)n1
How it was run: as §1

nilotinib = compound: Cc1cn(-c2cc(NC(=O)c3ccc(C)c(Nc4nccc(-c5cccnc5)n4)c3)cc(C(F)(F)F)c2)cn1 [nilotinib]
How it was run: as §1

[2] = compound: Cc1nc(Nc2n[nH]c3c2CN(C(=O)N[C@H](CN(C)C)c2ccccc2)C3(C)C)c2sccc2n1
How it was run: as §1

dasatinib = compound: Cc1nc(Nc2ncc(C(=O)Nc3c(C)cccc3Cl)s2)cc(N2CCN(CCO)CC2)n1 [dasatinib]
How it was run: as §1

[3] = compound: Cc1ncc(-c2ccnc(Nc3ccc(S(C)(=O)=O)cc3)n2)n1C(C)C
How it was run: as §1

[4] = compound: Cn1cc(-c2ccc3c(c2)CCN3C(=O)Cc2cccc(C(F)(F)F)c2)c2c(N)ncnc21
How it was run: as §1

[5] = compound: Cn1cc(-c2ccc3nnc(C(F)(F)c4ccc5ncccc5c4)n3n2)cn1
How it was run: as §1

tipifarnib = compound: Cn1cncc1[C@@](N)(c1ccc(Cl)cc1)c1ccc2c(c1)c(-c1cccc(Cl)c1)cc(=O)n2C [tipifarnib]
How it was run: as §1

mubritinib = compound: FC(F)(F)c1ccc(/C=C/c2nc(COc3ccc(CCCCn4ccnn4)cc3)co2)cc1 [mubritinib]
How it was run: as §1

Measured: log2 fold change

MAN2A1 (UniProt Q16706)
inactive: bafetinib -0.015 | [1] 0.023 | nilotinib 0.01 | [2] -0.01 | dasatinib 0.018 | [3] -0.025 | [4] 0.023 | [5] -0.014 | tipifarnib 0.097 | mubritinib 0.019

MAP4K3 (UniProt Q8IVH8)
inactive: bafetinib -0.36

MAGEC1 (UniProt O60732)
inactive: bafetinib 0.062 | [1] 0.025 | nilotinib 0.032 | [2] -0.046 | dasatinib -0.008 | [3] 0.065 | [4] -0.141 | [5] -0.04 | tipifarnib -0.085 | mubritinib -0.081

MAP1A isoform 2 (UniProt P78559)
inactive: bafetinib 0.034 | [1] 0.002 | nilotinib -0.009 | [2] 0.058 | dasatinib 0.02 | [3] -0.064 | [4] -0.093 | [5] 0.007 | tipifarnib 0.09 | mubritinib -0.043

LRSAM1 (UniProt Q6UWE0)
inactive: bafetinib -0.036 | [1] 0.023 | nilotinib -0.011 | [2] -0.073 | dasatinib -0.026 | [3] 0.029 | [4] 0.055 | [5] -0.028 | tipifarnib -0.001 | mubritinib 0.072

MAP2K4 isoform 2 (UniProt P45985)
inactive: bafetinib 0.015 | [1] 0.108 | nilotinib 0.008 | [2] -0.016 | dasatinib -0.019 | [3] -0.038 | [4] 0.033 | [5] -0.029 | tipifarnib 0.022 | mubritinib 0.079

MACC1 (UniProt Q6ZN28)
inactive: bafetinib -0.018 | [1] -0.014 | nilotinib 0.066 | [2] -0.077 | dasatinib -0.123 | [3] -0.108 | [4] -0.163 | [5] -0.072 | tipifarnib -0.21 | mubritinib 0.039

LYPLA2 (UniProt O95372)
inactive: bafetinib 0.139 | [1] 0.007 | nilotinib 0.13 | [2] -0.042 | dasatinib 0 | [3] -0.026 | [4] 0.175 | [5] 0.298 | tipifarnib -0.054 | mubritinib 0.013

5 neighbouring records already listed:
MAN2A1 (UniProt Q16706)
inactive: bafetinib -0.015 | [1] 0.023 | nilotinib 0.01 | [2] -0.01 | dasatinib 0.018 | [3] -0.025 | [4] 0.023 | [5] -0.014 | tipifarnib 0.097 | mubritinib 0.019

MAP4K3 (UniProt Q8IVH8)
inactive: bafetinib -0.36

MAGEC1 (UniProt O60732)
inactive: bafetinib 0.062 | [1] 0.025 | nilotinib 0.032 | [2] -0.046 | dasatinib -0.008 | [3] 0.065 | [4] -0.141 | [5] -0.04 | tipifarnib -0.085 | mubritinib -0.081

MAP1A isoform 2 (UniProt P78559)
inactive: bafetinib 0.034 | [1] 0.002 | nilotinib -0.009 | [2] 0.058 | dasatinib 0.02 | [3] -0.064 | [4] -0.093 | [5] 0.007 | tipifarnib 0.09 | mubritinib -0.043

LRSAM1 (UniProt Q6UWE0)
inactive: bafetinib -0.036 | [1] 0.023 | nilotinib -0.011 | [2] -0.073 | dasatinib -0.026 | [3] 0.029 | [4] 0.055 | [5] -0.028 | tipifarnib -0.001 | mubritinib 0.072

More records

MAPK3 (UniProt P27361)
inactive: bafetinib 0.055 | [1] 0.114 | nilotinib -0.006 | [2] 0.068 | dasatinib 0.033 | [3] 0.02 | [4] 0.019 | [5] -0.008 | tipifarnib -0.119 | mubritinib -0.011

MAPK14 isoform 2 (UniProt Q16539)
inactive: [1] -0.038 | [2] 0.176 | [3] 0.037 | [4] -0.071 | [5] -0.02 | tipifarnib -0.049 | mubritinib 0
active: bafetinib 1.73 | nilotinib 1.67 | dasatinib 1.37

MARCKSL1 (UniProt P49006)
inactive: bafetinib 0.04 | [1] -0.087 | nilotinib 0.003 | [2] 0.014 | dasatinib 0.062 | [3] 0.009 | [4] -0.008 | [5] -0.004 | tipifarnib 0.034 | mubritinib 0.005

MAGEA8 (UniProt P43361)
inactive: bafetinib 0.022 | [1] -0.265 | [2] -0.207 | dasatinib 0.019 | [3] 0.016 | [4] 0.008 | [5] -0.003 | tipifarnib -0.01
active: nilotinib -0.372

MAN2B1 (UniProt O00754)
inactive: bafetinib -0.055 | [1] -0.021 | nilotinib 0.039 | [2] -0.023 | dasatinib 0.005 | [3] 0.063 | [4] -0.021 | [5] 0.027 | tipifarnib 0.069 | mubritinib 0.088

MAEA (UniProt Q7L5Y9)
inactive: bafetinib -0.001 | [1] -0.01 | nilotinib -0.023 | [2] -0.021 | dasatinib 0.007 | [3] 0.02 | [4] -0.045 | [5] 0.003 | tipifarnib 0.008 | mubritinib 0.002

LYRM7 (UniProt Q5U5X0)
inactive: bafetinib -0.021 | [1] 0.015 | nilotinib 0.025 | [2] 0.035 | dasatinib -0.015 | [3] -0.027 | [4] 0.049 | [5] -0.034 | tipifarnib 0.001 | mubritinib -0.032

MARK3 (UniProt P27448)
active: [2] -0.718
inactive: bafetinib 0.033 | [1] 0.108 | nilotinib -0.125 | dasatinib -0.104 | [3] -0.11 | [4] -0.062 | [5] -0.046 | tipifarnib -0.013 | mubritinib -0.075

MACF1 (UniProt Q9UPN3)
inactive: bafetinib 0.118 | [1] -0.003 | nilotinib 0.024 | [2] -0.143 | dasatinib -0.075 | [3] -0.086 | [4] -0.013 | [5] -0.004 | tipifarnib 0.045 | mubritinib -0.009

MAP7D1 (UniProt Q3KQU3)
inactive: bafetinib 0.313 | [1] 0 | nilotinib -0.067 | [2] 0.11 | dasatinib 0.044 | [3] -0.011 | [4] -0.266 | [5] -0.152 | tipifarnib 0.085 | mubritinib -0.088

MAN2A2 (UniProt P49641)
inactive: bafetinib 0.032 | [1] -0.001 | nilotinib 0.037 | [2] -0.028 | dasatinib -0.013 | [3] -0.076 | [4] 0.003 | [5] -0.014 | tipifarnib 0.039 | mubritinib 0.031

LSM1 (UniProt O15116)
inactive: bafetinib -0.049 | [1] -0.008 | nilotinib 0.004 | [2] -0.063 | dasatinib 0.04 | [3] -0.008 | [4] 0.103 | [5] 0.12 | tipifarnib 0.033 | mubritinib 0.072

LTBP1 isoform 4 (UniProt Q14766)
inactive: bafetinib 0.086 | [1] -0.054 | nilotinib 0.173 | [2] 0.046 | dasatinib -0.237 | [3] -0.139 | [4] -0.026 | [5] -0.281 | tipifarnib -0.013

LYSMD2 (UniProt Q8IV50)
inactive: bafetinib -0.045 | [1] -0.012 | nilotinib 0.005 | [2] -0.016 | dasatinib 0.008 | [3] 0.013 | [4] -0.008 | [5] -0.027 | tipifarnib 0.038 | mubritinib 0.018

MACROD1 (UniProt Q9BQ69)
inactive: bafetinib -0.086 | [1] 0.028 | nilotinib -0.046 | [2] -0.102 | dasatinib -0.014 | [3] 0.037 | [4] 0.057 | [5] -0.05 | tipifarnib -0.096 | mubritinib 0.158

LRRFIP1 (UniProt Q32MZ4)
inactive: bafetinib -0.034 | [1] -0.043 | nilotinib 0.008 | [2] 0.002 | dasatinib 0.038 | [3] -0.016 | [4] 0.024 | [5] 0.013 | tipifarnib 0.016 | mubritinib 0.035

MAGT1 (UniProt Q9H0U3)
inactive: bafetinib -0.059 | [1] -0.001 | nilotinib -0.012 | [2] 0.029 | dasatinib 0.018 | [3] -0.067 | [4] -0.045 | [5] 0.038 | tipifarnib 0.014 | mubritinib -0.041

MAGI1 (UniProt Q96QZ7)
inactive: bafetinib -0.055 | [1] -0.023 | nilotinib 0.015 | dasatinib 0.039 | [3] -0.044 | [4] 0.052 | [5] -0.079 | tipifarnib 0.079 | mubritinib -0.021
active: [2] -0.477

MALSU1 (UniProt Q96EH3)
inactive: bafetinib -0.011 | [1] -0.004 | nilotinib 0 | [2] -0.017 | dasatinib -0.128 | [3] -0.014 | [4] -0.025 | [5] -0.007 | tipifarnib 0.045 | mubritinib -0.004

LYPLA1 (UniProt O75608)
inactive: bafetinib -0.012 | [1] -0.013 | nilotinib 0 | [2] 0.014 | dasatinib 0.058 | [3] -0.015 | [4] 0.128 | [5] 0.154 | tipifarnib -0.076 | mubritinib 0.009

LTV1 (UniProt Q96GA3)
inactive: bafetinib 0.137 | [1] -0.039 | nilotinib -0.047 | [2] 0.137 | dasatinib 0.025 | [3] 0.009 | [4] -0.112 | [5] -0.09 | tipifarnib 0.064 | mubritinib 0.042

MAP1LC3B2 (UniProt A6NCE7)
inactive: bafetinib -0.044 | [1] -0.029 | nilotinib -0.006 | [2] -0.023 | dasatinib -0.024 | [3] 0.072 | [4] 0.019 | [5] -0.011 | tipifarnib 0.007 | mubritinib 0.018

LYPLAL1 (UniProt Q5VWZ2)
inactive: bafetinib 0.001 | [1] 0.027 | nilotinib 0.018 | [2] 0.039 | dasatinib -0.054 | [3] -0.042 | [4] 0.098 | [5] -0.001 | tipifarnib -0.072 | mubritinib 0.04

From the supplement of paper PMC10849652
